# Test results published in PubChem BioAssay AID1671190 (National Center for Advancing Translational Sciences (NCATS), 2021).
# By UniProt entry, the sequences of proteins in these tests, tags left out. Where a name states a change or a piece, a line headed by the entry shows the natural chain unless it says otherwise.
# UniProt P18054: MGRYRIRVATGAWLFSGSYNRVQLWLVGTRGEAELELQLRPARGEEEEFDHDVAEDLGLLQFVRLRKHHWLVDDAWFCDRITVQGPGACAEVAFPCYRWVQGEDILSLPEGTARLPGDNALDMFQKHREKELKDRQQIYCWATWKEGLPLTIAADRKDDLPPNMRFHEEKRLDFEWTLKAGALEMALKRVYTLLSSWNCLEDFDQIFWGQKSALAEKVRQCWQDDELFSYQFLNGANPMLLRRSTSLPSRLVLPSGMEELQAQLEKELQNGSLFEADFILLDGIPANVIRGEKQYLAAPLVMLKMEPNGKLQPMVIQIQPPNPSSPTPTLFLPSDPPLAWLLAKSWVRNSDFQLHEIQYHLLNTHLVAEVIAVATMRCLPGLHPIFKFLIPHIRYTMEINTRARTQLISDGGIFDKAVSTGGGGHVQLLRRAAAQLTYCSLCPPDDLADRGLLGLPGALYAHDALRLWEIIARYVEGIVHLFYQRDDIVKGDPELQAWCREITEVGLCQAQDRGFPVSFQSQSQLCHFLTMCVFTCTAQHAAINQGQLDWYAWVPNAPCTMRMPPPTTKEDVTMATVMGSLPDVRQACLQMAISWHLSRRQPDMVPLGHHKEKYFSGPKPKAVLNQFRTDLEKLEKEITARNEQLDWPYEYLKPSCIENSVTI
# Several values for one entry are separate records, joined by “and”; a condition that tells them apart may be missing. Equal values may be shown once. The campaign covered roughly 580,000 compounds. About 6,100 (1.1%) were called active. The shares of active, inactive and inconclusive entries below differ from those in the screen. Calls follow the shape of the dose curve; as a rule, active = well fitted inhibition curve with a large enough effect; inconclusive = small, poorly fitted or top-dose-only effect, or another doubt; inactive = no such curve, though single readings can be large or run the other way. Where the call is inconclusive, the potency comes from a doubtful curve fit. Some structures have more than one record in an assay (separate samples or runs), and their calls can disagree.
# Molecular target: Polyunsaturated fatty acid lipoxygenase ALOX12 (Homo sapiens) (UniProt P18054)
# Assay: Primary qHTS assay for inhibitors of human arachidonate 12S-lipoxygenase (ALOX12): Round 2
# Conditions: purified 12hLO, xylenol orange hydroperoxide absorbance; activity change, negative = inhibition: at 108 µM (top of the series) unless noted
# Summary of the method: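 Purified human 12hLO at 150 nM in 25 mM Hepes, 0.01% Triton X-100, pH 7.0, preincubated 15 min at room temperature with compound. Reaction started with 40 uM arachidonic acid, 30 min at room temperature. Hydroperoxide measured by Fe-xylenol orange, 573/405 nm absorbance ratio.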
# % is scaled to controls: 0 for no effect and ±100 for the full control effect; potency is read from the fitted curve at half-maximal effect.
Structure (SMILES),Potency,"activity change, negative = inhibition"
COc1ccc(OCCC(=O)c2ccc(OC)cc2)cc1,"inconclusive: 89.1 µM [inhibitor, single point]",
CCOC(=O)C1C(=O)C=C(Nc2ccc(C(F)(F)F)cc2)CC1c1ccccc1 (stereo not drawn),"inconclusive: 63.1 µM [inhibitor, partial curve, poor fit]",
O=C1NC2(CCN(CC3CCCCC3)CC2)COc2ccccc21,active: 63.1 µM,
Cc1csc(=O)n1CCC(=O)OCC(=O)NCc1ccc(Cl)cc1Cl,"inconclusive: 50.1 µM [inhibitor, partial curve, poor fit]",
O=C(NCCc1ccccc1)c1cccc2c1C(=O)c1ccc(N3CCOCC3)cc1S2(=O)=O,"inconclusive: 2.82 µM [inhibitor, full curve, poor fit]",
Cc1cccc(-n2ccnc2SCC(=O)N2CCCc3ccccc32)c1C,,inactive: -15.7%
O=C(Nc1ccc(N2CCN(C(=O)c3ccco3)CC2)cc1)c1ccc([N+](=O)[O-])cc1Cl,,inactive: -1.42%
CN(Cc1ccccc1)S(=O)(=O)c1ccc2c(c1)OCCCO2,,inactive: 2.34%
COc1cc(NC(=S)N2CCN(C)CC2)cc(OC)c1,"inconclusive: 112 µM [inhibitor, single point]",
CCc1ccc(-c2cc(C(=O)O)c3ccccc3n2)cc1,,inactive: -7.11%
O=S(=O)(Nc1cccc(Cl)c1)c1ccc(-n2cccn2)cc1,"inconclusive: 100 µM [inhibitor, single point]",
NC1=NC(c2ccccc2C(F)(F)F)N(c2ccc(F)c(Cl)c2)C(N)=N1 (stereo not drawn),"inconclusive: 112 µM [inhibitor, partial curve, poor fit]",
CCOC(=O)C1CCCN(Cc2ccccc2Cl)C1 (stereo not drawn),"inconclusive: 0.316 µM [inhibitor, full curve, poor fit]",
O=C(COc1ccc(Cl)cc1)Nc1ccc2oc(-c3ccccc3)nc2c1,"inconclusive: 126 µM [inhibitor, partial curve, poor fit]",
COc1ccccc1CN(C)C(=O)NCc1ccc(S(=O)(=O)N2CCCCC2)cc1,,inactive: -8.8%
COc1ccc(-c2nc(S(=O)(=O)c3ccc(Cl)cc3)c(N3CCCCCC3)o2)cc1,"inconclusive: 50.1 µM [inhibitor, partial curve, poor fit]",
CCOc1ccccc1CN1CCC2(CCN(CCc3ccc(OC)cc3)CC2)Oc2ccccc21,"inconclusive: 79.4 µM [inhibitor, single point]",
Cc1[nH]c2ccc(C(=O)OC(C)C(=O)NC3(C#N)CCCCC3)cc2c1C (stereo not drawn),"inconclusive: 22.4 µM [inhibitor, partial curve, poor fit]",
Cc1cc(-c2ccc3c(c2)OCCCO3)nc2ccccc12,"inconclusive: 17.8 µM [inhibitor, partial curve, poor fit]",
COc1ccc2cc(-c3ccccc3F)ncc2c1,"inconclusive: 50.1 µM [inhibitor, partial curve, poor fit]",
CC1CC(C)CN(C(=O)c2ccc(-c3ccc([N+](=O)[O-])cc3)o2)C1 (stereo not drawn),"inconclusive: 39.8 µM [inhibitor, partial curve]",
O=C(Cn1nc(C(=O)O)c2ccccc2c1=O)Nc1ccc(Cl)cc1,"inconclusive: 100 µM [inhibitor, single point]",
Cc1ccc(S(=O)(=O)N2CCC(OC3CCN(Cc4ccccc4)CC3)CC2)c(C)c1,"inconclusive: 10 µM [inhibitor, full curve]",

# A draw from above in order of formula weight, high to low:
Structure (SMILES),Potency,"activity change, negative = inhibition"
O=C(NCCc1ccccc1)c1cccc2c1C(=O)c1ccc(N3CCOCC3)cc1S2(=O)=O,"inconclusive: 2.82 µM [inhibitor, full curve, poor fit]",
NC1=NC(c2ccccc2C(F)(F)F)N(c2ccc(F)c(Cl)c2)C(N)=N1 (stereo not drawn),"inconclusive: 112 µM [inhibitor, partial curve, poor fit]",
COc1cc(NC(=S)N2CCN(C)CC2)cc(OC)c1,"inconclusive: 112 µM [inhibitor, single point]",
Cc1cc(-c2ccc3c(c2)OCCCO3)nc2ccccc12,"inconclusive: 17.8 µM [inhibitor, partial curve, poor fit]",
COc1ccc2cc(-c3ccccc3F)ncc2c1,"inconclusive: 50.1 µM [inhibitor, partial curve, poor fit]",

# Remaining list, next part.

Structure (SMILES),Potency,"activity change, negative = inhibition"
O=C(Nc1cc(Cl)c(Cl)cc1Cl)c1cccnc1,"inconclusive: 126 µM [inhibitor, single point]",
Nc1nonc1-c1nc2ccccc2n1Cc1ccc(Br)cc1,"inconclusive: 12.6 µM [inhibitor, partial curve, poor fit]",
CCC(C)NC(=S)N(C)N (stereo not drawn),"inconclusive: 2.82 µM [inhibitor, full curve, poor fit]",
O=C1c2ccccc2NC(c2cnc3ccccc3n2)N1c1ccccc1 (stereo not drawn),,inactive: -13.9%
CCN(CC)CCOC(=O)c1ccc(NC(=O)C(C)NC(=O)C23CC4CC(CC(C4)C2)C3)cc1 (stereo not drawn),"inconclusive: 39.8 µM [inhibitor, partial curve]",
CCCCC(=O)NC(=S)Nc1ccc(S(=O)(=O)N2CCCC2)cc1,"inconclusive: 56.2 µM [inhibitor, partial curve, poor fit]",
Cc1cccc(NC(=O)c2cccc(NC(=O)Cc3cccs3)c2)c1,,inactive: -7.38%
O=[N+]([O-])c1cc(Cl)cc(/C=N/Nc2nc3ccccc3s2)c1O,"inconclusive: 63.1 µM [inhibitor, partial curve, poor fit]",
CC(C)(C)S(=O)(=O)N1C[C@@H]2CC/C=C\C/C(c3ccccc3)=C\2[C@H]1CCO,"inconclusive: 35.5 µM [inhibitor, single point]",
CCCOc1ccc(CC(=O)NCC2(c3ccccc3)CCOCC2)cc1OC,,inactive: -19.1%
Cc1cc2ccccc2n1CC(=O)N1CCCCCC1,"inconclusive: 141 µM [inhibitor, partial curve, poor fit]",
COc1cccc(C(=O)Nc2ccccc2N2CCN(C(=O)c3ccccc3)CC2)c1,,inactive: 3.59%
CN(Cc1ccc(C(C)(C)C)cc1)C(=O)c1ccc2c(=O)n3c(nc2c1)CCC3,,inactive: 6.13%
Cc1ccc(CS(=O)Cc2ccc(C(=O)NC3CCCC(C)C3C)o2)cc1 (stereo not drawn),,inactive: 0%
CN(C)/C=C1/NC(=S)NC1=O,"inconclusive: 31.6 µM [inhibitor, partial curve, poor fit]",
Nc1cccc(Oc2c(F)c(F)c(Oc3cccc(N)c3)c(F)c2F)c1,"inconclusive: 126 µM [inhibitor, single point]",
Cc1cccc(-c2nc(C#N)c(N3CCN(c4ccccc4)CC3)o2)c1,"inconclusive: 50.1 µM [inhibitor, partial curve, poor fit]",
Cc1ccc(NC(=O)C2=CC(c3cccs3)=NS(=O)(=O)N2C)cc1,inactive,
S=c1[nH]nc(-c2ccco2)n1/N=C/c1ccc(Cl)c(Cl)c1,"inconclusive: 79.4 µM [inhibitor, partial curve, poor fit]",
CCN(C(=O)COC(=O)c1cc(C)oc1C)c1c(N)n(Cc2ccccc2)c(=O)[nH]c1=O,"inconclusive: 141 µM [inhibitor, single point]",
CC(C)C(=O)N[C@H]1CCC2C3CC=C4C[C@@H](O)CC[C@]4(C)C3CC[C@@]21C (stereo partly drawn),,inactive: 11.3%
O=C(CSc1ccc2nnc(-c3ccc(F)cc3)n2n1)N1CCCc2ccccc21,,inactive: -0.417%
CC(=O)Nc1cccc(OCCc2ccccc2)c1,,inactive: 41.4%

Structure (SMILES),Potency,"activity change, negative = inhibition"
COc1ccc(C)cc1NC(=O)CSc1nc(=O)n(Cc2cccnc2)c2c1CCC2,,inactive: -4.16%
CCCCCN1C(C(=O)c2ccccc2)=C(NC(=O)c2ccc(OC)c(OC)c2)c2ccccc2S1(=O)=O,,inactive: -13%
Cc1cccc(NCc2n[nH]c(=S)n2-c2ccccc2)c1,"inconclusive: 44.7 µM [inhibitor, partial curve, poor fit]",
CCNCc1ccc(-c2ccccc2)o1,active: 15.8 µM,
COc1nc(-c2ccc(Cl)cc2)ccc1-c1noc(-c2ccco2)n1,"inconclusive: 50.1 µM [inhibitor, partial curve, poor fit]",
O=C(N/N=C/c1ccc(Cl)cc1Cl)c1cccs1,,inactive: -20.7%
COCCn1c2c(c(=O)[nH]c1=O)C(c1cccc3ccccc13)C1=C(N2)c2ccccc2C1=O (stereo not drawn),"inconclusive: 44.7 µM [inhibitor, single point]",
CC1(C)C2CC=C(/C=N/NC(N)=S)C1C2 (stereo not drawn),"inconclusive: 89.1 µM [inhibitor, partial curve, poor fit]",
C[C@H]1CN=C(N(C)C)N1CC1CCCCC1,"inconclusive: 17.8 µM [inhibitor, partial curve, poor fit]",
O=C(C1CCCN(S(=O)(=O)c2cccc3nonc23)C1)N1CCN(c2ccccc2F)CC1 (stereo not drawn),"inconclusive: 7.94 µM [inhibitor, full curve, poor fit]",
CCOc1ccccc1N1CC(C(=O)NCCC2=CCCCC2)CC1=O (stereo not drawn),,inactive: -16.2%
CCOc1ccc(NC(=O)[C@@H](NC(=O)c2ccccc2)[C@@H](C)CC)cc1,,inactive: 29.4%
COc1ccc(NC(=O)N2CCC(CN3CCCC3)CC2)c(OC)c1,,inactive: -3.28%
CCC(=O)Nc1ccc(C2C(=O)c3ccccc3C2=O)cc1,"inconclusive: 12.6 µM [inhibitor, partial curve, poor fit]",
CC[N+]1(C)CCC2C(C1)c1cc(C)ccc1N2C(=O)c1ccccc1Cl (stereo not drawn),"inconclusive: 39.8 µM [inhibitor, partial curve, poor fit]",
COc1ccc(Cl)cc1NC(=O)CSc1nnc(-n2nc(C)cc2C)n1N,,inactive: 2.82%
COc1ccc2oc(C(=O)OCC(=O)N(C)c3c(N)n(Cc4ccccc4)c(=O)[nH]c3=O)c(C)c2c1,"inconclusive: 7.94 µM [inhibitor, full curve, poor fit]",
C/C(=N\NC(=O)OC(C)(C)C)c1cccc([N+](=O)[O-])c1,,inactive: 11.8%
Clc1ccccc1-c1nc(-c2ccncc2)no1,"inconclusive: 50.1 µM [inhibitor, partial curve, poor fit] and inconclusive: 10 µM [inhibitor, partial curve, poor fit]",inactive: 0.688% [at 22.9 µM]
Cc1cnc(C(=O)Nc2cc(Cl)c(NC(=O)c3ccc(S(C)(=O)=O)cc3)c(Cl)c2)cn1,"inconclusive: 50.1 µM [inhibitor, partial curve, poor fit]",
FC(F)(F)c1cc(-c2cccs2)nc(=S)[nH]1,"inconclusive: 6.31 µM [inhibitor, full curve, poor fit]",
